The reference is the same well before dosing, and untreated signal decays as well.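 Fibroblast labels name human fibroblasts: mostly primary ones from tissues such as uterus (C12385, HUF), lung (H6013), bone (Hs27A), adrenal (HADF) and skin (WS1), plus mammary HMF and breast cancer-associated Hs343T. The cancer cells are basal-like or mesenchymal-like triple-negative breast cancer lines. The paper calls a changed response a hit when it shifts by more than 3x the replicate standard deviation. The tissue of the other fibroblasts is not given here.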
Test system: MDAMB436
Test: relative JC-1 red fluorescence (viability) vs pre-drug, coculture with fibroblast (fraction); higher = more viable cancer cells
Procedure: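 JC-1 labelled TNBC cells cocultured 1:1 (1,500 cells each) with CellTrace Violet stained primary or stromal fibroblasts in 384-well plates in FluoroBrite medium, treated with one of 42 anticancer drugs at 0.1, 1, 10 or 100 uM. JC-1 red fluorescence (mitochondrial integrity in cancer cells only) was read by plate reader every 8 h for 72 h. Values are normalised to each well's pre-drug value. The stock of one drug was tenfold lower, so its dose labels may be too high.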

C#Cc1cccc(Nc2ncnc3cc(OCCOC)c(OCCOC)cc23)c1 [Erlotinib]
relative JC-1 red fluorescence
Details	8 h	16 h	24 h	32 h	40 h	48 h	56 h	64 h	72 h
0.1 µM, coculture fibroblast: C12385	0.8081	0.705	0.676	0.597	0.544	0.52	0.488	0.467	0.452
0.1 µM, coculture fibroblast: H6013	0.84	0.743	0.727	0.717	0.686	0.703	0.659	0.639	0.596
0.1 µM, coculture fibroblast: H6019	0.743	0.689	0.666	0.594	0.552	0.533	0.4834	0.445	0.4103
0.1 µM, coculture fibroblast: H6076	0.7501	0.647	0.627	0.573	0.561	0.535	0.544	0.5473	0.533
0.1 µM, coculture fibroblast: H6231	0.779	0.698	0.682	0.6	0.568	0.533	0.507	0.467	0.436
0.1 µM, coculture fibroblast: HADF	0.82059	0.746	0.704	0.672	0.638	0.649	0.588	0.567	0.525
0.1 µM, coculture fibroblast: HCFa	0.834	0.751	0.726	0.694	0.659	0.667	0.6	0.588	0.534
0.1 µM, coculture fibroblast: HCPF	0.795	0.713	0.6953	0.632	0.599	0.564	0.538	0.518	0.495
0.1 µM, coculture fibroblast: HHSteC	0.81	0.754	0.7257	0.689	0.672	0.6863	0.6223	0.601	0.5422
0.1 µM, coculture fibroblast: HMF	0.805	0.701	0.668	0.619	0.596	0.562	0.551	0.532	0.518
0.1 µM, coculture fibroblast: HPFa	0.883	0.821	0.808	0.76	0.748	0.752	0.67	0.63	0.555
0.1 µM, coculture fibroblast: HUF	0.835	0.746	0.734	0.664	0.613	0.589	0.567	0.554	0.544
0.1 µM, coculture fibroblast: Hs5	0.8167	0.7341	0.7041	0.646	0.614	0.571	0.566	0.531	0.52
0.1 µM, coculture fibroblast: Hs27A	0.786	0.718	0.669	0.639	0.591	0.641	0.545	0.519	0.452
0.1 µM, coculture fibroblast: Hs343T	0.767	0.654	0.608	0.558	0.529	0.5	0.494	0.478	0.478
0.1 µM, coculture fibroblast: WS1	0.7919	0.6894	0.6566	0.5713	0.5335	0.51	0.482	0.458	0.445
1 µM, coculture fibroblast: C12385	0.76	0.7357	0.74	0.68	0.648	0.635	0.622	0.606	0.6
1 µM, coculture fibroblast: H6013	0.824	0.811	0.807	0.804	0.798	0.827	0.778	0.76	0.707
1 µM, coculture fibroblast: H6019	0.77	0.742	0.747	0.69	0.66	0.646	0.609	0.572	0.536
1 µM, coculture fibroblast: H6076	0.7534	0.6983	0.718	0.682	0.665	0.6432	0.6593	0.6547	0.6467
1 µM, coculture fibroblast: H6231	0.748	0.666	0.705	0.6307	0.5977	0.584	0.565	0.546	0.515
1 µM, coculture fibroblast: HADF	0.8099	0.77	0.755	0.741	0.726	0.76	0.688	0.684	0.64
1 µM, coculture fibroblast: HCFa	0.836	0.863	0.881	0.87	0.879	0.915	0.852	0.848	0.804
1 µM, coculture fibroblast: HCPF	0.763	0.718	0.749	0.697	0.68	0.651	0.636	0.623	0.599
1 µM, coculture fibroblast: HHSteC	0.824	0.813	0.798	0.765	0.763	0.7816	0.7131	0.6922	0.6396
1 µM, coculture fibroblast: HMF	0.738	0.676	0.678	0.631	0.612	0.583	0.581	0.568	0.559
1 µM, coculture fibroblast: HPFa	0.886	0.854	0.84	0.815	0.81	0.825	0.758	0.732	0.649
1 µM, coculture fibroblast: HUF	0.8231	0.76322	0.7561	0.6886	0.6425	0.616	0.59	0.57	0.563
1 µM, coculture fibroblast: Hs5	0.788	0.751	0.753	0.701	0.688	0.645	0.647	0.631	0.611
1 µM, coculture fibroblast: Hs27A	0.835	0.761	0.768	0.753	0.733	0.796	0.687	0.667	0.595
1 µM, coculture fibroblast: Hs343T	0.755	0.695	0.681	0.645	0.613	0.5812	0.577	0.561	0.553
1 µM, coculture fibroblast: WS1	0.7811	0.7446	0.7419	0.671	0.643	0.63136	0.6116	0.59019	0.57754
10 µM, coculture fibroblast: C12385	0.8537	0.8081	0.812	0.7629	0.7327	0.712	0.691	0.665	0.652
10 µM, coculture fibroblast: H6013	0.88	0.808	0.825	0.83	0.838	0.863	0.842	0.835	0.812
10 µM, coculture fibroblast: H6019	0.8004	0.7676	0.768	0.724	0.705	0.707	0.678	0.656	0.631
10 µM, coculture fibroblast: H6076	0.8	0.682	0.69	0.665	0.655	0.639	0.639	0.638	0.625
10 µM, coculture fibroblast: H6231	0.79	0.745	0.734	0.705	0.705	0.683	0.672	0.644	0.619
10 µM, coculture fibroblast: HADF	0.8619	0.831	0.835	0.823	0.82	0.837	0.794	0.783	0.753
10 µM, coculture fibroblast: HCFa	0.8773	0.829	0.84051	0.845	0.837	0.866	0.816	0.821	0.765
10 µM, coculture fibroblast: HCPF	0.795	0.704	0.709	0.654	0.636	0.602	0.58	0.567	0.552
10 µM, coculture fibroblast: HHSteC	0.8597	0.8225	0.8016	0.7779	0.776	0.787	0.734	0.707	0.654
10 µM, coculture fibroblast: HMF	0.863	0.776	0.748	0.709	0.688	0.658	0.636	0.614	0.598
10 µM, coculture fibroblast: HPFa	0.901	0.872	0.869	0.851	0.846	0.857	0.791	0.771	0.706
10 µM, coculture fibroblast: HUF	0.876	0.8123	0.81	0.7577	0.73	0.705	0.68	0.675	0.667
10 µM, coculture fibroblast: Hs5	0.887	0.806	0.812	0.76	0.744	0.695	0.689	0.658	0.643
10 µM, coculture fibroblast: Hs27A	0.919	0.915	0.913	0.8832	0.857	0.876	0.802	0.788	0.716
10 µM, coculture fibroblast: Hs343T	0.8204	0.6985	0.726	0.707	0.703	0.687	0.678	0.675	0.677
10 µM, coculture fibroblast: WS1	0.81	0.7569	0.7347	0.684	0.6525	0.6401	0.613	0.586	0.566
100 µM, coculture fibroblast: C12385	0.922	0.94	0.882	0.927	0.915	0.923	0.916	0.897	0.887
100 µM, coculture fibroblast: H6013	0.974	0.908	0.824	0.835	0.836	0.773	0.792	0.719	0.814
100 µM, coculture fibroblast: H6019	0.838	0.82	0.8439	0.814	0.823	0.827	0.816	0.802	0.78
100 µM, coculture fibroblast: H6076	0.789	0.713	0.739	0.707	0.694	0.678	0.697	0.698	0.693
100 µM, coculture fibroblast: H6231	0.73	0.681	0.72	0.651	0.632	0.628	0.624	0.619	0.597
100 µM, coculture fibroblast: HADF	0.915	0.933	0.95	0.85	0.84	0.846	0.875	0.868	0.913
100 µM, coculture fibroblast: HCFa	0.8875	0.898	0.904	0.902	0.902	0.946	0.891	0.897	0.86
100 µM, coculture fibroblast: HCPF	0.803	0.762	0.76	0.692	0.641	0.611	0.589	0.582	0.562
100 µM, coculture fibroblast: HHSteC	0.921	0.947	0.947	0.929	0.943	0.96	0.922	0.907	0.875
100 µM, coculture fibroblast: HMF	0.757	0.711	0.7303	0.693	0.681	0.666	0.67	0.662	0.653
100 µM, coculture fibroblast: HPFa	0.936	0.837	0.82	0.855	0.919	0.877	0.838	0.83	0.77
100 µM, coculture fibroblast: HUF	0.908	0.887	0.889	0.844	0.807	0.781	0.76	0.757	0.75
100 µM, coculture fibroblast: Hs5	0.713	0.69	0.6984	0.668	0.6653	0.6273	0.6471	0.6392	0.626
100 µM, coculture fibroblast: Hs27A	0.934	0.799	0.9162	0.827	0.855	0.945	0.808	0.826	0.815
100 µM, coculture fibroblast: Hs343T	0.761	0.705	0.711	0.68	0.664	0.642	0.647	0.6405	0.64
100 µM, coculture fibroblast: WS1	0.856	0.837	0.846	0.799	0.791	0.784	0.772	0.758	0.757
